According to ChEMBL document CHEMBL5584300, “Bioinformatic Approaches Identify Hybrid Antibiotics against Tuberculosis via d-Amino Acid-Activating Adenylation Domains from Cordyceps militaris” (J Nat Prod, 2024):

Test system: Escherichia coli
Assay: Antibacterial activity against Escherichia coli ATCC 25922 assessed as reduction in microbial growth incubated for 20 hrs by CLSI based broth microdilution method
Type: functional

CC1(C)S[C@@H]2[C@H](NC(=O)[C@H](N)c3ccccc3)C(=O)N2[C@H]1C(=O)O [AMPICILLIN]
MIC: 8 mg/L
